Assay results published in PubChem BioAssay AID624297 (National Center for Advancing Translational Sciences (NCATS), 2012).
Several values for one entry are separate records, joined by “and”; a condition that tells them apart may be missing. Equal values may be shown once. In all, about 340,000 compounds went through this assay and about 6,200 (1.8%) were called active. Inconclusive means that the source gave no clear call. Such entries were picked first, then a sample of the others. Calls come from the whole dose curve; as a rule, active = well fitted activation curve with a large enough effect; inconclusive = small, poorly fitted or top-dose-only effect; inactive = no such curve, though single readings can be large or run the other way. Potencies of inconclusive entries are doubtful fits and often do not repeat.
Potency is the fitted concentration of half-maximal effect.

Assay: A quantitative high throughput screen for small molecules that induce DNA re-replication in SW480 colon adenocarcinoma cells. For re-replication activation: % of control where 0% means no effect. Note: nearly all actives have a fitted effect of over 55% in size.
Conditions: Hoechst DNA content imaging, 48 h; re-replication activation: at 46.1 µM (top of the series) unless noted
Method in brief: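 Image-based DNA-content assay: after two days of treatment, nuclei were labelled with the DNA dye Hoechst and imaged, and hits were compounds raising the count of nuclei showing high fluorescence intensity.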
For `COc1ccc2oc(C(=O)Nc3nc(-c4ccccn4)cs3)c(C)c2c1`, the Potency was inconclusive: 13 µM [activator, partial curve, poor fit].
In the case of `O=C(CSc1ncn(-c2ccccc2)n1)Nc1nc2c(s1)CCCC2`, the Potency is reported as “inactive”.
In the case of `Cc1nc([N+](=O)[O-])c(SCC(N)=O)n1Cc1ccccc1`, the Potency is reported as “inactive”.
In the case of `COc1nc(C)cc(C)c1S(=O)(=O)c1ccccc1`, the re-replication activation is reported as inconclusive: -61.7% [activator].
In the case of `Cc1nn(Cc2ccc([N+](=O)[O-])cc2)c(=O)n1-c1cccc(F)c1`, the Potency is reported as inconclusive: 6.51 µM [activator, single point].
With `COc1ccc(-c2csc(NC(=O)C3CSC4(C)CCC(=O)N34)n2)cc1` (stereo unspecified) the Potency was inconclusive: 29.1 µM [activator, single point].
In the case of `COc1cc(-c2nnc(SCC(=O)NC3CCS(=O)(=O)C3)o2)cc(OC)c1OC` (stereo unspecified), the Potency is reported as “inactive”.
For `CCCCN(Cc1ccco1)S(=O)(=O)c1c[nH]c(C(=O)OC)c1`, the Potency was inconclusive: 25.9 µM [activator, partial curve, poor fit].
For `COC(=O)c1[nH]c2cccc(C)c2c1NC(=O)CN1CCN(c2ccccc2OC)CC1`, the Potency was inconclusive: 23.1 µM [activator, single point].
For `CC(C)(C)OC(=O)C[C@@H]1C/C=C\C[C@@H](CC(=O)N[C@@H](CO)Cc2ccccc2)C(=O)NC[C@@H](c2ccccc2)OC1=O`, the Potency was “inactive”.
With `CC1CCN(S(=O)(=O)c2ccc(C(=O)NC3CCS(=O)(=O)C3)cc2)CC1` (stereo unspecified) the Potency was inconclusive: 23.1 µM [activator, single point].
For `CCOC(=O)c1c(NC(=O)CNCCOC)sc2c1CCCC2`, the Potency was “inactive”.
For `COc1ccc(N2CCOCC2)c(NC(=O)c2cc3ccccc3o2)c1`, the Potency was inconclusive: 29.1 µM [activator, single point].
In the case of `CCCC(O)(CCC)C(=O)NNc1ccccc1`, the Potency is reported as “inactive”.
In the case of `COCCN(CCOC)C(=O)COC(=O)c1ccc(Cl)c(S(=O)(=O)N(C)c2ccccc2)c1`, the Potency is reported as inconclusive: 14.6 µM [activator, single point].
With `N=c1c(C(=O)NCc2ccco2)cc2c(=O)n3ccccc3nc2n1Cc1ccccc1` the Potency was active: 14.6 µM.
With `CCCOc1cc2c(C#N)c(N3CCCC3)nc(N)c2c(N)n1` the Potency was inconclusive: 11.6 µM [activator, single point].
With `CC(=O)NC(c1cccs1)c1cc(F)c2cccnc2c1O` (stereo unspecified) the Potency was inconclusive: 9.2 µM [activator, partial curve].
With `CCC(C)[C@H]1CN=C(N)N1CCc1cc(C(F)(F)F)cc(C(F)(F)F)c1` (stereo partly specified) the Potency was “inactive”.
With `O=[N+]([O-])c1ccc(/C=N/N2CCN(Cc3ccccc3)CC2)cc1` the Potency was inconclusive: 29.1 µM [activator, single point].
With `Cc1cccn2c(=O)c3cc(C#N)c(=NC(=O)c4ccccc4)n(Cc4ccco4)c3nc12` the Potency was active: 14.6 µM and active: 7.31 µM.
In the case of `Cc1cc(C)cc(N(CCC#N)C(=O)COC(=O)CCc2c[nH]c3ccccc23)c1`, the Potency is reported as “inactive”.
For `Cc1ccc(-c2csc(NC(=O)CN3CCOCC3)n2)cc1`, the Potency was inconclusive: 18.4 µM [activator, single point].
In the case of `Cc1ccc(OCC(=O)N(Cc2ccccc2)C(C)(C)C)c([N+](=O)[O-])n1`, the Potency is reported as “inactive”.
In the case of `CC(C)C(NC(=O)c1ccccc1F)C(=O)NCCCn1ccnc1` (stereo unspecified), the Potency is reported as “inactive”.
With `N#C/C(=C\c1ccc(N2CCOCC2)o1)C(=O)Nc1ccc(O)cc1` the Potency was inconclusive: 23.1 µM [activator, single point].
With `COc1cc(C#Cc2c(-c3cncn3C)n(C)c3ccc(-c4cc(OC)c(OC)c(OC)c4)cc23)cc(OC)c1` the Potency was inconclusive: 6.51 µM [activator, full curve, poor fit].
In the case of `C=CCNC(=S)N/N=C/c1ccc(C(C)(C)C)cc1`, the Potency is reported as inconclusive: 29.1 µM [activator, single point].
In the case of `Cc1cc(C)cc(NC(=O)COC(=O)c2ccc3c(c2)OCCO3)c1`, the Potency is reported as inconclusive: 29.1 µM [activator, single point].
For `CN(c1ccccc1)S(=O)(=O)c1cc(C(=O)N2CCN(c3ncccn3)CC2)ccc1Cl`, the Potency was inconclusive: 16.4 µM [activator, partial curve, poor fit].
In the case of `CCOC(=O)c1cc(C#N)c(N2CCN(C(=O)c3ccccc3)CC2)nc1C(F)(F)F`, the Potency is reported as active: 14.6 µM.
With `Cc1ccc(NC(=O)N2CCCC(c3nc(-c4ccc(F)cc4)no3)C2)cc1` (stereo unspecified) the Potency was “inactive”.
With `O=C(NCCc1ccccc1F)C1CCCN1S(=O)(=O)c1ccc2ccccc2c1` (stereo unspecified) the Potency was inconclusive: 29.1 µM [activator, single point].
With `C=CCn1c(=N)c(S(=O)(=O)c2ccc(C)c(C)c2)cc2c(=O)n3ccccc3nc21` the Potency was inconclusive: 14.6 µM [activator, single point].
With `COc1ccc(C(=O)c2ccc(OC)cc2OC)cc1` the Potency was inconclusive: 18.4 µM [activator, single point].
With `O=C(Nc1cccc(-c2cccc(F)c2)c1)C1CCN(CC2CCOC2)CC1` (stereo unspecified) the Potency was inconclusive: 20.6 µM [activator, single point].
For `CCC(C)NC(=O)c1cn(CC)c2ccc(S(=O)(=O)N3CCCCC3)cc2c1=O` (stereo unspecified), the Potency was “inactive”.
In the case of `Cc1c(C)c(C)c(S(=O)(=O)Nc2ccc3[nH]c(=O)[nH]c3c2)c(C)c1C`, the Potency is reported as inconclusive: 18.4 µM [activator, single point].
For `CCOc1ccc(NC(=O)CN(C)C(=O)c2cc(S(=O)(=O)N(C)C)ccc2N2CCCC2)cc1OCC`, the Potency was “inactive”.
For `O=C(COc1ccc2c(c1)oc(=O)c1ccccc12)NCCCN1CCOCC1`, the Potency was inconclusive: 6.51 µM [activator, partial curve, poor fit].
With `CC1CCN(S(=O)(=O)N2CCC(C(=O)NCCc3ccccc3)CC2)CC1` the Potency was “inactive”.
In the case of `Nc1nc(NCCO)nc(NC2CCCCC2)c1[N+](=O)[O-]`, the Potency is reported as inconclusive: 20.6 µM [activator, single point].
For `Cc1cc(OC(=O)c2c(C)cc(OC(=O)c3c(C)cc(O)cc3O)cc2O)cc(O)c1C(=O)O`, the Potency was “inactive”.
For `Cc1nc(Nc2ccccc2Br)c2nnn(Cc3ccccc3)c2n1`, the Potency was “inactive”.
For `CC1=CC(C)(C)N2C(=O)C(=Nc3ccc(O)cc3)c3cccc1c32`, the Potency was inconclusive: 3.66 µM [activator, full curve].
In the case of `Cc1noc(C)c1CC(=O)N1CCCC(C(=O)c2ccc(C(C)(C)C)cc2)C1` (stereo unspecified), the Potency is reported as inconclusive: 0.0046 µM [activator, full curve, poor fit].
In the case of `COc1ccccc1C1CC(c2ccc(NS(C)(=O)=O)cc2)=NN1S(=O)(=O)c1ccccc1` (stereo unspecified), the Potency is reported as inconclusive: 0.92 µM [activator, full curve, poor fit].
With `Cc1ccc(C)c(N=Nc2nc3ccccc3n2C)c1` the Potency was inconclusive: 18.4 µM [activator, single point].
With `C=CCN(c1ccccc1)S(=O)(=O)c1cccc(C(=O)NCC(c2ccc(OC)cc2)N2CCCCC2)c1` (stereo unspecified) the Potency was inconclusive: 29.1 µM [activator, single point].
For `Cc1cccc(C)c1NC(=O)CN`, the Potency was active: 18.4 µM.
For `O=C(CN1C(=O)c2cccc3cccc1c23)N1CCN(c2ccc(F)cc2)CC1`, the Potency was inconclusive: 35.5 µM [activator, single point].
For `COC(=O)c1cc(C)sc1NC(=O)CN1CCN(C(=O)c2ccco2)CC1`, the Potency was inconclusive: 29.1 µM [activator, single point].
For `COc1ccc(C2C(C(=O)N3CCN(c4ccc(OC)cc4)CC3)c3ccccc3C(=O)N2C)cc1` (stereo unspecified), the Potency was inconclusive: 29.1 µM [activator, partial curve, poor fit].
For `Cc1cccc(/C(N)=N/OC(=O)c2cccnc2)c1`, the Potency was “inactive”.
In the case of `CCN(C[C@H]1N[C@@](CC)(C(=O)OC)[C@H]2C(=O)N(C)C(=O)[C@@H]12)C(=O)C1CCCCC1`, the Potency is reported as inconclusive: 7.31 µM [activator, single point].
In the case of `CC(=O)Nc1ccc(NS(=O)(=O)c2ccc3ccccc3c2)cc1`, the Potency is reported as inconclusive: 23.1 µM [activator, single point].
In the case of `O=C(NCCCN1CCOCC1)c1ccc2c(c1)N(Cc1ccccc1)C(=O)c1ccccc1S2=O` (stereo unspecified), the Potency is reported as inconclusive: 0.0041 µM [activator, full curve, poor fit].
For `CN1CCN(S(=O)(=O)c2ccc(N(C)Cc3ccc(OC(F)F)cc3)c([N+](=O)[O-])c2)CC1`, the Potency was inconclusive: 29.1 µM [activator, partial curve, poor fit].
With `Cn1c(=O)c(C(=O)NNC(=O)c2ccccc2Br)c(O)c2ccccc21` the Potency was inconclusive: 16.4 µM [activator, single point].
With `Cc1cccc(C)c1OCC(=O)N/N=C/c1ccc2c(c1)OCO2` the Potency was inconclusive: 23.1 µM [activator, single point].
In the case of `Cc1ccc(S(=O)(=O)N(C)C)cc1NC(=O)c1cc(-c2ccncc2)nc2ccccc12`, the Potency is reported as inconclusive: 0.103 µM [activator, full curve, poor fit].
For `O=C1OCC/C1=C\c1ccc(O)cc1`, the Potency was “inactive”.
With `CCN(CC)CCN(C)Cc1nc(C(c2ccccc2)c2ccccc2)no1` the Potency was inconclusive: 11.6 µM [activator, partial curve, poor fit].
For `CCN(C(=O)COC(=O)c1nn(-c2ccccc2)c(=O)c2ccccc12)C1CCS(=O)(=O)C1` (stereo unspecified), the Potency was inconclusive: 29.1 µM [activator, single point].
With `CCSc1nnc(SCC(=O)NC2CCCCC2)s1` the Potency was “inactive”.
For `CCc1ccc(/C=C/C(=O)c2ccc(S(=O)(=O)N(C)C)cc2)cc1`, the Potency was inconclusive: 20.6 µM [activator, single point].
